This is one part of the list.
Key:
Assay in all cases: log2 fold change, soluble protein after heating vs DMSO (PISA); higher = thermal stabilisation; K562 lysate, 10 uM; active = over 0.2 and 3.5 SD of the protein, either way, in both replicates (recomputed)
[1] = compound: CCCS(=O)(=O)Nc1ccc(F)c(C(=O)c2c[nH]c3ncc(-c4ccc(Cl)cc4)cc23)c1F [vemurafenib]
Outline: (§1)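 To prepare the extract, K562 pellets were dounce-homogenised in PBS pH 7.4 with 1 mM MgCl2, giving crude material at 1 mg/mL protein. This was treated with 10 μM compound for 30 min, then heated in aliquots for 3 min over 48°C-58°C before pooling and addition of NP-40 to 0.5% at 4°C. Centrifugation at 21,000xg for 90 min left soluble protein in the supernatant, which TMTpro 16plex LC-MS/MS quantified with equalised channel sums. Results are log-two fold changes in thermal stability compared with solvent controls, from duplicates.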

Chains of the proteins cited; added tags and fusions are not shown. Lines headed by an entry give the natural chain unless they say otherwise; changes in a name come on top.
UniProt Q9UIY3: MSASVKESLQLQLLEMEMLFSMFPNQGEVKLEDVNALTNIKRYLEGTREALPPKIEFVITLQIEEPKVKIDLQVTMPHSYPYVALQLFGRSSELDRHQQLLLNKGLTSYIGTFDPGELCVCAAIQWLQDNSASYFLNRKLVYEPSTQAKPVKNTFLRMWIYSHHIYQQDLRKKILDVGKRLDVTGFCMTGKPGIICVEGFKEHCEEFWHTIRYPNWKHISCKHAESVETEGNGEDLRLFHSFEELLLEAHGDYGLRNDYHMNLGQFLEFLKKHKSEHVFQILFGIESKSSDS
UniProt Q9NYV6: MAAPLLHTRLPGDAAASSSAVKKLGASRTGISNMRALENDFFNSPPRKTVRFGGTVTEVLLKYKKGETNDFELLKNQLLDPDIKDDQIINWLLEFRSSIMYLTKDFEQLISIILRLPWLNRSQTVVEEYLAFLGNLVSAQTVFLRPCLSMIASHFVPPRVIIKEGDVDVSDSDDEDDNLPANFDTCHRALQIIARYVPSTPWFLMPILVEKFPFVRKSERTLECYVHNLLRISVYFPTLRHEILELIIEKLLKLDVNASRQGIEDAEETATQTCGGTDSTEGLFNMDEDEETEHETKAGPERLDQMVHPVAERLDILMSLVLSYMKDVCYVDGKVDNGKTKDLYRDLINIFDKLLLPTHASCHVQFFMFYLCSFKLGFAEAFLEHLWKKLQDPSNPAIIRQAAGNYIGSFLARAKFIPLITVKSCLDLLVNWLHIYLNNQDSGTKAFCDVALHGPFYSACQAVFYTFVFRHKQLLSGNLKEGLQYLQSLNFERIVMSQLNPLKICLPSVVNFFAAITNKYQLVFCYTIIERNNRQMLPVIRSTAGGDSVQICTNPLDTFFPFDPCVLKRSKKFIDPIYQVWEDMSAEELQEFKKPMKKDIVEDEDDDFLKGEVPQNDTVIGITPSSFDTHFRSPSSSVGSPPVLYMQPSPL
UniProt Q86VV8: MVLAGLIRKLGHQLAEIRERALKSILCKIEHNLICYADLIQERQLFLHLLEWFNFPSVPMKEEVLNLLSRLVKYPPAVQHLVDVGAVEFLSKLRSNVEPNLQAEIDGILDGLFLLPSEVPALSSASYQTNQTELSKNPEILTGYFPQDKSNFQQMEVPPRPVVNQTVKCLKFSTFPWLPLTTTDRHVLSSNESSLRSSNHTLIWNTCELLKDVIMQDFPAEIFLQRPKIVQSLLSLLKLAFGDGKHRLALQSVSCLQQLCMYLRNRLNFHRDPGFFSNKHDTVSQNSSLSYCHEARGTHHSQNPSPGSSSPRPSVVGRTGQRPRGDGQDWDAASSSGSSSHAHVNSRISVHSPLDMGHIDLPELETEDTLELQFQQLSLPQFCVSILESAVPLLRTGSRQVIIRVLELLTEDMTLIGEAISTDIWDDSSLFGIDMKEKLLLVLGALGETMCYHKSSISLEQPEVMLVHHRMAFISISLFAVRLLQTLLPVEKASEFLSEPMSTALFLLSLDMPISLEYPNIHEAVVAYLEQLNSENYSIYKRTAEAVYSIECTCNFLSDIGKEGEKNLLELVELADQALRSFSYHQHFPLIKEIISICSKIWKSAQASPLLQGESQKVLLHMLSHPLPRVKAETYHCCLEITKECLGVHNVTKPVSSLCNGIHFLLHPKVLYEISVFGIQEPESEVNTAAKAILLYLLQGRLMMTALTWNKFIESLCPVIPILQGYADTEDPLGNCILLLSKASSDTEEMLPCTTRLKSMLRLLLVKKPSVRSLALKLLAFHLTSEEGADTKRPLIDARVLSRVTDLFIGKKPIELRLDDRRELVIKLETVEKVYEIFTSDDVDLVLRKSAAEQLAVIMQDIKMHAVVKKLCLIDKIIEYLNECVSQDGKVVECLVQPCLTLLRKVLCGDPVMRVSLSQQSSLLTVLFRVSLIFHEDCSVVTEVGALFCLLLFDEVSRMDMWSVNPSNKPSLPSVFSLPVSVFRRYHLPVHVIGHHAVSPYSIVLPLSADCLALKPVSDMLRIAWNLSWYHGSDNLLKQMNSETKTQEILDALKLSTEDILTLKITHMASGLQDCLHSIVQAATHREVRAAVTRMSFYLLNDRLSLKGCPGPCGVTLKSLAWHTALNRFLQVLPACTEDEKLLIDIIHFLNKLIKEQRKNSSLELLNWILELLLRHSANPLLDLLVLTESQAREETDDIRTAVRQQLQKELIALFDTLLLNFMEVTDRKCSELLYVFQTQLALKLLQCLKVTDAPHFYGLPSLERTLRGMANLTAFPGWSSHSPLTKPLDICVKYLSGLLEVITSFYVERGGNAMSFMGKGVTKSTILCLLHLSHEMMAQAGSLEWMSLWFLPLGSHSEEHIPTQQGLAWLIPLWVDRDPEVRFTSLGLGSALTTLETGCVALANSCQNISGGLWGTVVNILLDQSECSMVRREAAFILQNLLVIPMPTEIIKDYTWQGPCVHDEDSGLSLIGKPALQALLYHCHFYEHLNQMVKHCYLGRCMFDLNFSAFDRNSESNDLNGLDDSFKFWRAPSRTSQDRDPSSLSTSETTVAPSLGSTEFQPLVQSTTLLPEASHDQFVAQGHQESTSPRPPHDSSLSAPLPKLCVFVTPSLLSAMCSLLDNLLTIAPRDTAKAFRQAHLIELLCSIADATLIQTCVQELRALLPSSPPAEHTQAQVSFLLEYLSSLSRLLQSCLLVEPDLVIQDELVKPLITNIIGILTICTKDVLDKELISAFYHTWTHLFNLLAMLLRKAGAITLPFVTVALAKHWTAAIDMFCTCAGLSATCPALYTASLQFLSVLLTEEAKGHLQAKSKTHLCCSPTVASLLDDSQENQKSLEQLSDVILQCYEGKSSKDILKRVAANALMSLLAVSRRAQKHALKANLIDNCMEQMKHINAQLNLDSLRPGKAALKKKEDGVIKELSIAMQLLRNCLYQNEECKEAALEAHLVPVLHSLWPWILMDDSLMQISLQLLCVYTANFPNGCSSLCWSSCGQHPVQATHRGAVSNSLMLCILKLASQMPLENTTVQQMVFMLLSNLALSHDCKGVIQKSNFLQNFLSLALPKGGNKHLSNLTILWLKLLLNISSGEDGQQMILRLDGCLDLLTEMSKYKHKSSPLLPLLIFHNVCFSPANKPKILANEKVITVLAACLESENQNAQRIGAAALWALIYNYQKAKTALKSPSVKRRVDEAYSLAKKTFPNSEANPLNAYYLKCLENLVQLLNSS
UniProt Q7L3V2: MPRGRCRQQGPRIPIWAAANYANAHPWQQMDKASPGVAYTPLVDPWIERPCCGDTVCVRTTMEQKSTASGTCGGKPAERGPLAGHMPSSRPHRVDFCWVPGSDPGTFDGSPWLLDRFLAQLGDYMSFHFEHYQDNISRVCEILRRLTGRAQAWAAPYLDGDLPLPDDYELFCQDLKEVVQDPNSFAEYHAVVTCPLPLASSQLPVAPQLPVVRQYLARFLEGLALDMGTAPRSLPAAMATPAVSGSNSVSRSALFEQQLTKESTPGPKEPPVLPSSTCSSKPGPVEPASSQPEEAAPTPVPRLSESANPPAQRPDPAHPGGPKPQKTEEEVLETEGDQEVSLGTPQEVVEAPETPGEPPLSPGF
UniProt P57060: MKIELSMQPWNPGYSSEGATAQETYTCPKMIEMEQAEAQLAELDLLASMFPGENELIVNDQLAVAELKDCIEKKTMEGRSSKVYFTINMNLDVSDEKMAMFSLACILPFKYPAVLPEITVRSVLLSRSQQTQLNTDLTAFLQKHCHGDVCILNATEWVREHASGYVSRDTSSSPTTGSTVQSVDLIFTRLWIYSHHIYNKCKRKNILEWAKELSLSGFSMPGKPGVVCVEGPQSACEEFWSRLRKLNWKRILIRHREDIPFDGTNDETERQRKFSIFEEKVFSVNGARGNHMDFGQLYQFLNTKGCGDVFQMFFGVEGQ
UniProt P26447: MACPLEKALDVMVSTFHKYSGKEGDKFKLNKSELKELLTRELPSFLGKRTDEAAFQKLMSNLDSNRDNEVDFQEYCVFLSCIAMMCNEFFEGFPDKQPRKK
UniProt Q9H633: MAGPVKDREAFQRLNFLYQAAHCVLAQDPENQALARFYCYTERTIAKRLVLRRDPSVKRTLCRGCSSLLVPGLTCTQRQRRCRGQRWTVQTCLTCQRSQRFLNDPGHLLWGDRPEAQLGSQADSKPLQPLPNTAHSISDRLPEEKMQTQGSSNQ
UniProt Q86SG5: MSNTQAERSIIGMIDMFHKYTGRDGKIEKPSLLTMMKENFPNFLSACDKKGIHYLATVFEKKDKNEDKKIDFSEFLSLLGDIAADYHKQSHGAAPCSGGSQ
UniProt Q96FQ6: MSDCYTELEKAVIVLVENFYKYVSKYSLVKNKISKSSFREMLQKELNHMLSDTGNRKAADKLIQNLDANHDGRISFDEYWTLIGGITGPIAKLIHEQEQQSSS
UniProt Q9UBS0: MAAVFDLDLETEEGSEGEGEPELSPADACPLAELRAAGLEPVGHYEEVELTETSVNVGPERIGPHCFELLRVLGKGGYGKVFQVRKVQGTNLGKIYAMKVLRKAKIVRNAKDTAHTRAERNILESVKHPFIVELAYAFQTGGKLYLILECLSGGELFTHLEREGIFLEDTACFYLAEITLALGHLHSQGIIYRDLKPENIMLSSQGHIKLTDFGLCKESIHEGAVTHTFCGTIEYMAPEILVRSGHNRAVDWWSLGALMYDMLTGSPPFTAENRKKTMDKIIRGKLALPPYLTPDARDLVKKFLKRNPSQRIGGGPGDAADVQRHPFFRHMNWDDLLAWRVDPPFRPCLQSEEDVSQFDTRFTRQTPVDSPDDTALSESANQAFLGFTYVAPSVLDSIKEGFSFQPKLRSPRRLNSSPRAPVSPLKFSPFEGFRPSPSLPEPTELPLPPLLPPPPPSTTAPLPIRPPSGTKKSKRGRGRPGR
UniProt Q96CM3: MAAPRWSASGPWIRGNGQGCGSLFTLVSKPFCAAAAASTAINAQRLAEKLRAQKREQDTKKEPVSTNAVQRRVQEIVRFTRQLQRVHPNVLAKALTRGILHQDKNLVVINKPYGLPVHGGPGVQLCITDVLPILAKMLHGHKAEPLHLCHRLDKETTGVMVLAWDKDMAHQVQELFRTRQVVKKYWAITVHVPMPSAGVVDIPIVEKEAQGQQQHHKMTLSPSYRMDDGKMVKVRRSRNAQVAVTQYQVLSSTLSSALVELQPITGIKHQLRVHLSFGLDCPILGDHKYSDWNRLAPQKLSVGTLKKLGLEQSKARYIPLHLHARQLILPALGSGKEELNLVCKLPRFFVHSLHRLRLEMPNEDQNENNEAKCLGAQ
UniProt Q9BZR6: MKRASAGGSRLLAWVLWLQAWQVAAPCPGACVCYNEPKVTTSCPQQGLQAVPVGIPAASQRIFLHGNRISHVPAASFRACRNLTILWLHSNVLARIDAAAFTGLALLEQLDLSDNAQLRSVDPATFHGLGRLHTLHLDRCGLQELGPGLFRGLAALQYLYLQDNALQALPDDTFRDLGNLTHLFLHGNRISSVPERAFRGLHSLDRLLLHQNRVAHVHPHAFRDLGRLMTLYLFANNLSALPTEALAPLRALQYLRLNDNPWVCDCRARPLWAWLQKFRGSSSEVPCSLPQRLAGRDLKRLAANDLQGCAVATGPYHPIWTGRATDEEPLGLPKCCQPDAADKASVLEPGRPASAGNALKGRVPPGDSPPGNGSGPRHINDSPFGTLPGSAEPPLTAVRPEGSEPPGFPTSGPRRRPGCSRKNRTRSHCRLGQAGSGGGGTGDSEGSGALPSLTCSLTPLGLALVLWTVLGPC
UniProt Q9UJJ7: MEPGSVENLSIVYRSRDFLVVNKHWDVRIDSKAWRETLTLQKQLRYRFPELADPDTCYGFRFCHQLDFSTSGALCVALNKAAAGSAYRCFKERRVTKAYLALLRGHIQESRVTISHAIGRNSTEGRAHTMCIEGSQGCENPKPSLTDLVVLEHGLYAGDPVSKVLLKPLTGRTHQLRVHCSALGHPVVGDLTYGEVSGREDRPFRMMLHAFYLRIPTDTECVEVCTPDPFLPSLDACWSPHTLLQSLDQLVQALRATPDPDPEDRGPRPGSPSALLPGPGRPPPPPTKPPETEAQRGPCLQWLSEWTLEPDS

[2] = compound: CCN(CCCOc1ccc2c(Nc3cc(CC(=O)Nc4cccc(F)c4)[nH]n3)ncnc2c1)CCOP(=O)(O)O [barasertib]
Outline: as §1

[3] = compound: CC[C@@H]1C(=O)N(C)c2cnc(Nc3ccc(C(=O)NC4CCN(C)CC4)cc3OC)nc2N1C1CCCC1
Outline: as §1

[4] = compound: CCn1c(C(=O)N(C2CC2)C2CC2)cc2c3c(ncn3C)c(Nc3cc(C)n(C)n3)nc21
Outline: as §1

[5] = compound: CCn1cc(-c2ccnc3[nH]c(-c4cccc(CN(C)C)c4)cc23)c(-c2ccc(NC(=O)N(C)C)cc2)n1
Outline: as §1

[6] = compound: CN1CCC(CNc2ccc3ncc(-c4cccc(OC(F)(F)F)c4)n3n2)CC1
Outline: as §1

[7] = compound: CN1CCN(CCOc2cc(OC3CCOCC3)c3c(Nc4c(Cl)ccc5c4OCO5)ncnc3c2)CC1 [saracatinib]
Outline: as §1

[8] = compound: CN1CCN(c2nc(C3=C(c4c[nH]c5ccccc45)C(=O)NC3=O)c3ccccc3n2)CC1 [sotrastaurin]
Outline: as §1

[9] = compound: CN1CC[C@H](c2c(O)cc(O)c3c(=O)cc(-c4ccccc4Cl)oc23)[C@H](O)C1 [alvocidib]
Outline: as §1

[10] = compound: CN1CCc2c(c3ccccc3n2Cc2ccc(C(=O)NO)cc2)C1 [Tubastatin A]
Outline: as §1

[11] = compound: CNC(=O)C1=CC=CC=C1NC2=NC(=NC=C2Cl)NC3=C(C=C(C=C3)N4CCOCC4)OC
Outline: as §1

[12] = compound: CNC(=O)c1ccc(Nc2ncc(C(F)(F)F)c(NCc3nccnc3N(C)S(C)(=O)=O)n2)cc1 [defactinib]
Outline: as §1

[13] = compound: CNc1nc(-c2ccc3c(N)n[nH]c3c2)cc(N2C[C@@H](C(=O)NC3CCCCC3)CC[C@H]2C)n1
Outline: as §1

[14] = compound: COC(=O)N[C@@H](C)CNc1nccc(-c2cn(C(C)C)nc2-c2cc(Cl)cc(NS(C)(=O)=O)c2F)n1 [encorafenib]
Outline: as §1

[15] = compound: COC(=O)[C@H](CCSC)NC(=O)C1=C(C=C(C=C1)NC[C@H](CS)N)C2=CC=CC=C2
Outline: as §1

[16] = compound: CCCS(=O)(=O)Nc1ccc(F)c(C(=O)c2c[nH]c3ncc(Cl)cc23)c1F
Outline: as §1

[17] = compound: CC[C@@H]1C(=O)N(C)c2cnc(Nc3ccc(C(=O)N[C@H]4CC[C@H](N5CCN(CC6CC6)CC5)CC4)cc3OC)nc2N1C(C)C [volasertib]
Outline: as §1

[18] = compound: COc1cc(Nc2ncc3c(n2)-c2ccc(Cl)cc2C(c2c(F)cccc2OC)=NC3)ccc1C(=O)O [alisertib]
Outline: as §1

[19] = compound: COc1cc2nc(-c3cc(F)ccc3O)nc(N[C@@H]3CNC[C@H]3C(C)(C)O)c2cc1OC
Outline: as §1

[20] = compound: COc1cc2ncnc(Nc3ccc(F)c(Cl)c3)c2cc1OCCCN1CCOCC1 [gefitinib]
Outline: as §1

Target | log2 fold change [1] | log2 fold change [2] | log2 fold change [3] | log2 fold change [4] | log2 fold change [5] | log2 fold change [6] | log2 fold change [7] | log2 fold change [8] | log2 fold change [9] | log2 fold change [10] | log2 fold change [11] | log2 fold change [12] | log2 fold change [13] | log2 fold change [14] | log2 fold change [15] | log2 fold change [16] | log2 fold change [17] | log2 fold change [18] | log2 fold change [19] | log2 fold change [20]
RWDD2A (UniProt Q9UIY3) | inactive: 0.158 | inactive: -0.044 | inactive: 0.069 | inactive: 0.04 | inactive: -0.173 | inactive: -0.113 | inactive: 0.02 | inactive: 0.061 | inactive: 0.017 | inactive: 0.05 | inactive: -0.144 | inactive: -0.031 | inactive: 0.034 | inactive: -0.007 | inactive: 0.018 | – | – | – | – | –
RRN3 (UniProt Q9NYV6) | inactive: 0.051 | inactive: 0.099 | inactive: -0.034 | inactive: -0.028 | inactive: -0.083 | inactive: 0.024 | inactive: 0.214 | inactive: 0.16 | inactive: 0.02 | inactive: -0.033 | – | inactive: -0.032 | inactive: 0.005 | inactive: 0.006 | inactive: 0.06 | inactive: -0.013 | inactive: -0.006 | inactive: -0.044 | inactive: 0.02 | inactive: 0.127
RTTN (UniProt Q86VV8) | inactive: 0.066 | inactive: 0.043 | inactive: -0.101 | inactive: 0.099 | inactive: -0.347 | inactive: -0.316 | inactive: 0.047 | – | inactive: 0.088 | inactive: -0.242 | inactive: 0.082 | inactive: 0.401 | inactive: 0.018 | inactive: 0.069 | inactive: -0.085 | inactive: 0.011 | inactive: -0.293 | inactive: -0.002 | inactive: -0.301 | inactive: 0.049
RTL10 (UniProt Q7L3V2) | inactive: 0.027 | inactive: -0.105 | inactive: 0.074 | inactive: -0.011 | inactive: 0.01 | inactive: -0.087 | inactive: 0.101 | inactive: 0.008 | inactive: 0.05 | inactive: 0.063 | inactive: -0.042 | inactive: 0.08 | inactive: 0.009 | inactive: 0.031 | inactive: -0.041 | – | – | inactive: 0.065 | – | inactive: -0.233
RWDD2B (UniProt P57060) | inactive: 0.042 | inactive: -0.029 | inactive: 0.127 | inactive: -0.011 | – | – | inactive: 0.003 | inactive: 0.066 | – | inactive: -0.033 | inactive: 0.034 | inactive: 0.017 | inactive: 0.125 | inactive: 0.123 | inactive: -0.028 | inactive: -0.028 | inactive: 0 | inactive: 0.047 | inactive: -0.03 | inactive: -0.054
S100A4 (UniProt P26447) | inactive: -0.021 | – | inactive: -0.123 | inactive: -0.053 | inactive: 0.142 | inactive: -0.085 | inactive: 0.197 | inactive: -0.588 | inactive: 0.018 | inactive: -0.002 | inactive: -0.029 | inactive: 0.101 | inactive: -0.128 | inactive: 0.095 | inactive: 0.288 | inactive: 0.054 | inactive: -0.031 | inactive: 0.13 | inactive: -0.032 | inactive: 0.043
S100A6 (UniProt P06703) | inactive: 0.036 | – | inactive: -0.027 | inactive: -0.094 | inactive: 0.03 | inactive: -0.139 | active: 0.715 | inactive: -0.033 | inactive: 0.084 | inactive: -0.044 | inactive: 0.018 | inactive: -0.017 | inactive: -0.126 | inactive: -0.173 | inactive: 0.023 | inactive: 0.124 | inactive: 0.048 | – | inactive: -0.038 | –
RPL7A (UniProt P62424) | inactive: -0.003 | inactive: -0.051 | inactive: 0.012 | inactive: -0.01 | inactive: 0.203 | inactive: -0.024 | inactive: 0.013 | inactive: -0.014 | inactive: 0.003 | inactive: 0.061 | inactive: -0.018 | inactive: -0.003 | inactive: 0.047 | inactive: -0.023 | inactive: -0.015 | inactive: -0.002 | inactive: -0.008 | inactive: 0 | inactive: 0.009 | inactive: -0.06
RPP21 isoform 4 (UniProt Q9H633) | inactive: -0.005 | inactive: -0.026 | inactive: 0.026 | inactive: -0.008 | inactive: -0.189 | inactive: 0.151 | inactive: -0.006 | inactive: 0.142 | inactive: -0.033 | inactive: 0.071 | inactive: -0.028 | inactive: 0.082 | inactive: 0.055 | inactive: -0.07 | inactive: 0.031 | inactive: -0.023 | inactive: 0.041 | inactive: -0.155 | inactive: 0.059 | inactive: -0.016
RPS28 (UniProt P62857) | inactive: -0.018 | inactive: -0.01 | inactive: 0.004 | inactive: 0.039 | inactive: -0.003 | inactive: 0.064 | inactive: -0.004 | inactive: 0.051 | inactive: -0.022 | inactive: 0.032 | inactive: -0.02 | inactive: -0.024 | inactive: -0.027 | inactive: 0.003 | inactive: -0.026 | inactive: -0.044 | inactive: -0.018 | inactive: -0.043 | inactive: 0.004 | inactive: 0.008
RPS7, A0A2R8Y623 | inactive: 0.313 | inactive: 0.4 | inactive: -0.07 | – | – | – | inactive: 0.348 | – | – | – | inactive: -0.207 | inactive: 0.075 | inactive: -0.124 | inactive: 0.024 | inactive: 0.41 | inactive: -0.143 | inactive: 0.016 | – | inactive: -0.114 | –
S100A7A (UniProt Q86SG5) | – | – | – | – | – | – | – | inactive: -0.205 | – | – | inactive: 0.031 | – | – | – | – | – | – | – | – | –
S100A16 (UniProt Q96FQ6) | – | inactive: 0.271 | – | – | inactive: 0.075 | inactive: 0.072 | – | inactive: 0.131 | inactive: 0.043 | – | – | – | – | – | – | inactive: -0.264 | inactive: -0.171 | inactive: -0.079 | inactive: 0.069 | inactive: 0.542
RPS6KB2 (UniProt Q9UBS0) | – | – | inactive: -0.117 | – | inactive: 0.001 | inactive: -0.117 | inactive: 0.008 | inactive: 0.149 | inactive: 0.09 | – | inactive: 0.222 | – | inactive: -0.037 | inactive: 0.132 | inactive: 0.066 | inactive: 0.037 | inactive: 0.083 | inactive: 0.013 | inactive: -0.063 | inactive: -0.037
RPUSD4 (UniProt Q96CM3) | inactive: 0 | inactive: 0.031 | – | inactive: -0.009 | inactive: -0.157 | inactive: 0.034 | inactive: -0.005 | inactive: 0.016 | inactive: -0.006 | inactive: 0.068 | inactive: -0.022 | inactive: -0.139 | inactive: 0.015 | – | – | – | – | inactive: 0.016 | – | inactive: 0.086
RTN4R (UniProt Q9BZR6) | – | – | – | – | – | – | – | – | – | – | inactive: -0.103 | – | – | – | – | – | – | – | – | –
RPUSD1 (UniProt Q9UJJ7) | inactive: -0.007 | – | inactive: 0.176 | inactive: -0.18 | inactive: 0.014 | inactive: -0.137 | inactive: 0.037 | – | inactive: 0.064 | inactive: -0.033 | – | inactive: -0.016 | inactive: 0.179 | inactive: -0.113 | inactive: 0.127 | – | – | – | – | –

Nothing new here: entries from further up.
Target | log2 fold change [1] | log2 fold change [2] | log2 fold change [3] | log2 fold change [4] | log2 fold change [5] | log2 fold change [6] | log2 fold change [7] | log2 fold change [8] | log2 fold change [9] | log2 fold change [10] | log2 fold change [11] | log2 fold change [12] | log2 fold change [13] | log2 fold change [14] | log2 fold change [15] | log2 fold change [16] | log2 fold change [17] | log2 fold change [18] | log2 fold change [19] | log2 fold change [20]
RWDD2A (UniProt Q9UIY3) | inactive: 0.158 | inactive: -0.044 | inactive: 0.069 | inactive: 0.04 | inactive: -0.173 | inactive: -0.113 | inactive: 0.02 | inactive: 0.061 | inactive: 0.017 | inactive: 0.05 | inactive: -0.144 | inactive: -0.031 | inactive: 0.034 | inactive: -0.007 | inactive: 0.018 | – | – | – | – | –
RRN3 (UniProt Q9NYV6) | inactive: 0.051 | inactive: 0.099 | inactive: -0.034 | inactive: -0.028 | inactive: -0.083 | inactive: 0.024 | inactive: 0.214 | inactive: 0.16 | inactive: 0.02 | inactive: -0.033 | – | inactive: -0.032 | inactive: 0.005 | inactive: 0.006 | inactive: 0.06 | inactive: -0.013 | inactive: -0.006 | inactive: -0.044 | inactive: 0.02 | inactive: 0.127
RTTN (UniProt Q86VV8) | inactive: 0.066 | inactive: 0.043 | inactive: -0.101 | inactive: 0.099 | inactive: -0.347 | inactive: -0.316 | inactive: 0.047 | – | inactive: 0.088 | inactive: -0.242 | inactive: 0.082 | inactive: 0.401 | inactive: 0.018 | inactive: 0.069 | inactive: -0.085 | inactive: 0.011 | inactive: -0.293 | inactive: -0.002 | inactive: -0.301 | inactive: 0.049
RTL10 (UniProt Q7L3V2) | inactive: 0.027 | inactive: -0.105 | inactive: 0.074 | inactive: -0.011 | inactive: 0.01 | inactive: -0.087 | inactive: 0.101 | inactive: 0.008 | inactive: 0.05 | inactive: 0.063 | inactive: -0.042 | inactive: 0.08 | inactive: 0.009 | inactive: 0.031 | inactive: -0.041 | – | – | inactive: 0.065 | – | inactive: -0.233
RWDD2B (UniProt P57060) | inactive: 0.042 | inactive: -0.029 | inactive: 0.127 | inactive: -0.011 | – | – | inactive: 0.003 | inactive: 0.066 | – | inactive: -0.033 | inactive: 0.034 | inactive: 0.017 | inactive: 0.125 | inactive: 0.123 | inactive: -0.028 | inactive: -0.028 | inactive: 0 | inactive: 0.047 | inactive: -0.03 | inactive: -0.054
